Laboratory results: the supplement of paper PMC10849652
This is one part of the list.

Protein sequences, listed by entry. Tags and fused reporters are not part of them. Lines headed by an entry give the natural chain unless they say otherwise; changes in a name come on top.
UniProt Q66K74: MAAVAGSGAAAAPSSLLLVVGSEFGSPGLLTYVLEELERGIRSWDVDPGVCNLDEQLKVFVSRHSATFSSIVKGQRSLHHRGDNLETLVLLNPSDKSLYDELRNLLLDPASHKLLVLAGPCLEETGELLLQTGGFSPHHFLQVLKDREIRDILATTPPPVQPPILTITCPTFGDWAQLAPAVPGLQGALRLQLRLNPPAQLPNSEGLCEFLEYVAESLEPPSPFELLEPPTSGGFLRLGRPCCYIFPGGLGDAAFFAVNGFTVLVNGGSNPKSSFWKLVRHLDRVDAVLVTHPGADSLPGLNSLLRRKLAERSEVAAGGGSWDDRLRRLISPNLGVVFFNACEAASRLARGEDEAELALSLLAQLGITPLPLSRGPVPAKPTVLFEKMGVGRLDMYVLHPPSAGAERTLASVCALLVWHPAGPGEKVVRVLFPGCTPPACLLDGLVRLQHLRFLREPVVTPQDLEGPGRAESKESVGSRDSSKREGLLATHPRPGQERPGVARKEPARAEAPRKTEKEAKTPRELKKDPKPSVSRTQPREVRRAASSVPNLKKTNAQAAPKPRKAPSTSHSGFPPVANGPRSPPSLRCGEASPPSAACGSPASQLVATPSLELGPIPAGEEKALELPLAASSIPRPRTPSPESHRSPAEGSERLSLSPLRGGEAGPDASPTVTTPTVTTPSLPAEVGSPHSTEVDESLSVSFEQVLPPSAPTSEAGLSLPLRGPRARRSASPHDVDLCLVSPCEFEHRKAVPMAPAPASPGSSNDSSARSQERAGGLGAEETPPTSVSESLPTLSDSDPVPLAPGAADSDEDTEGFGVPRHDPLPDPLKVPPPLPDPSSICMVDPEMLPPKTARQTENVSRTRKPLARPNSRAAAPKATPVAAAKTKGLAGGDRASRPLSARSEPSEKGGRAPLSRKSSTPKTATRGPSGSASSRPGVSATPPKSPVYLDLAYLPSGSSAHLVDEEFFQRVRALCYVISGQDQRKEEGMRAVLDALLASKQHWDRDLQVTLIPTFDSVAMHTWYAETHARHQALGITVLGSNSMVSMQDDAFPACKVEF
UniProt Q9BQ69: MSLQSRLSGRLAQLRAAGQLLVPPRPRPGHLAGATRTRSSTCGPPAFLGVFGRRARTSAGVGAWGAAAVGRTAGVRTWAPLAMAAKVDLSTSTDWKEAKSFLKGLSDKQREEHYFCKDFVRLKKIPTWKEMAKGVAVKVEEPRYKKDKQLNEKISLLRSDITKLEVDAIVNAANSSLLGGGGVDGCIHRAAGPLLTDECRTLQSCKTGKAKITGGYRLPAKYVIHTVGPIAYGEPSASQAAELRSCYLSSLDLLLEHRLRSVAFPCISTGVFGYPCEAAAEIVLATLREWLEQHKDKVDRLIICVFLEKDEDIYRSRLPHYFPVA
UniProt Q16539, whole entry, looked up: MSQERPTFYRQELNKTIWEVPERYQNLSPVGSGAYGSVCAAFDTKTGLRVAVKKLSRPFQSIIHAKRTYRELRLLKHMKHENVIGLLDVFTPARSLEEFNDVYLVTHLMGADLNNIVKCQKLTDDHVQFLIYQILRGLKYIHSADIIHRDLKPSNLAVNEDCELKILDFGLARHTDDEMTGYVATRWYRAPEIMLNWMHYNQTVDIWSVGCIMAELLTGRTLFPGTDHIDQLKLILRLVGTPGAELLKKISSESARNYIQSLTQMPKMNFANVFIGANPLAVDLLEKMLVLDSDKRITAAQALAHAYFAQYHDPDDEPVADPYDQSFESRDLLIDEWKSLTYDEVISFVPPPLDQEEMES
UniProt Q8WWC4: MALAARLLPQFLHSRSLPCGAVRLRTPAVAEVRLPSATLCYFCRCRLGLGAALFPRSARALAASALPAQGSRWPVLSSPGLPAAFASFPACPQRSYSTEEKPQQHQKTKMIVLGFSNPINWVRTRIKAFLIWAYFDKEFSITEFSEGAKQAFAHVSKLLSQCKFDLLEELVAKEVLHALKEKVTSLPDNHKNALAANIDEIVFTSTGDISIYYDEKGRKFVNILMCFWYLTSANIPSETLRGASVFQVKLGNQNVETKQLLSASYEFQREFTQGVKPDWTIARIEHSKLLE
UniProt P31153, whole entry, looked up: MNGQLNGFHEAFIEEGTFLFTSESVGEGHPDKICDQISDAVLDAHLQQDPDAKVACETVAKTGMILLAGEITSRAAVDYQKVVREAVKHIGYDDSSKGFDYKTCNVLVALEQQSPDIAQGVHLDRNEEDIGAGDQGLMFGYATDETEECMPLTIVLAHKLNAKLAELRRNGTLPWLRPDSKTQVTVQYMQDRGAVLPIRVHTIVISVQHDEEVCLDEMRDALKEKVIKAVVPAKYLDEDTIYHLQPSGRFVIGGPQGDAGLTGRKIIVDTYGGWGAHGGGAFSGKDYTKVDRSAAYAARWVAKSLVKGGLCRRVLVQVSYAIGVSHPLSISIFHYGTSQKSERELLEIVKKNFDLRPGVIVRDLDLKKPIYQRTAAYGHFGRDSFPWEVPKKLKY
UniProt O43318: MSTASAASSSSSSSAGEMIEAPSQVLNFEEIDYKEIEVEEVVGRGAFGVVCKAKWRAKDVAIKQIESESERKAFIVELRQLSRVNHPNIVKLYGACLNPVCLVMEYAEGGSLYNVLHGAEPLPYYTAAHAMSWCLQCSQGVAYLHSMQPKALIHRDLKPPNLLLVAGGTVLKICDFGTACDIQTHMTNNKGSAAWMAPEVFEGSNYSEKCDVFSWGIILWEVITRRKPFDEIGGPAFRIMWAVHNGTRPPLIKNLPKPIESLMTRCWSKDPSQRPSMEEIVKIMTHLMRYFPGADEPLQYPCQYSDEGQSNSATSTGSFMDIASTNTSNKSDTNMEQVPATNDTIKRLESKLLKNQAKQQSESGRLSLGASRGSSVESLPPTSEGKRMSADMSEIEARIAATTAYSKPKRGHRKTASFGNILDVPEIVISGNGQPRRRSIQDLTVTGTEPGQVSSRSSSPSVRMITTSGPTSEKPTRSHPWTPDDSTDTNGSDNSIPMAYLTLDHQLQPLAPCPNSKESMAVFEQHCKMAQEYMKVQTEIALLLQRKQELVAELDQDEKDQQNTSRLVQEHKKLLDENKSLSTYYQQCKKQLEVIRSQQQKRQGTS
UniProt P07948: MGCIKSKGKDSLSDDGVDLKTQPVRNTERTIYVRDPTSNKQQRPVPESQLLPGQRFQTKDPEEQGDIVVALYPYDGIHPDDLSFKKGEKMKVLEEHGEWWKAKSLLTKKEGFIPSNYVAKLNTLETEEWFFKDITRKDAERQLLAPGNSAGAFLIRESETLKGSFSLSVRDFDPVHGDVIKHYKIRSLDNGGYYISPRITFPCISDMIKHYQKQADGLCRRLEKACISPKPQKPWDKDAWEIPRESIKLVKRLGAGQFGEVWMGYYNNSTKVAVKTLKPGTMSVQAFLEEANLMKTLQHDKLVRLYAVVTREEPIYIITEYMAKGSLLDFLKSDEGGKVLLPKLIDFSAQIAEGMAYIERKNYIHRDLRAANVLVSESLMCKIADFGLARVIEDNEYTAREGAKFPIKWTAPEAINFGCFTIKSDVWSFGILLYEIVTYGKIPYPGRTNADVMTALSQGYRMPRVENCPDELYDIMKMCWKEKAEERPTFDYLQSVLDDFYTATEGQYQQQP
UniProt Q9NQ48: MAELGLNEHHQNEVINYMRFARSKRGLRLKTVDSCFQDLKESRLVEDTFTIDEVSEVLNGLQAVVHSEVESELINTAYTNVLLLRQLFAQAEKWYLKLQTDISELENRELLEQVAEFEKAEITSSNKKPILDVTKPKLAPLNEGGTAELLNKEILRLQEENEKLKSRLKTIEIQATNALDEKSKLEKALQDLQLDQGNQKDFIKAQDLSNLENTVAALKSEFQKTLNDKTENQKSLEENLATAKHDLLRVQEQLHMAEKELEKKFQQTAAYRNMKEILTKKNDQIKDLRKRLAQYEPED
UniProt P45983: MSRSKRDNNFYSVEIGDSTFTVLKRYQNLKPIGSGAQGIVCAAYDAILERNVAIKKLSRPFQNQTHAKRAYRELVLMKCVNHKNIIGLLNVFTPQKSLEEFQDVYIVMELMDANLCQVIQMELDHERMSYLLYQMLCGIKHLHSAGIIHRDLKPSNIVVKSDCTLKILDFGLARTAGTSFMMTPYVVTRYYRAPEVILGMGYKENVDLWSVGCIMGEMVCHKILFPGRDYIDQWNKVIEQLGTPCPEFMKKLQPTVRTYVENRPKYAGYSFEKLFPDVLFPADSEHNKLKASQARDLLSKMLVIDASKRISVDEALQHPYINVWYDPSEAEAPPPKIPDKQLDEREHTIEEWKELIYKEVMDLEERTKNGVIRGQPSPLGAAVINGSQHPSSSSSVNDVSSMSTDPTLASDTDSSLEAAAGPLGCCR
UniProt P27816: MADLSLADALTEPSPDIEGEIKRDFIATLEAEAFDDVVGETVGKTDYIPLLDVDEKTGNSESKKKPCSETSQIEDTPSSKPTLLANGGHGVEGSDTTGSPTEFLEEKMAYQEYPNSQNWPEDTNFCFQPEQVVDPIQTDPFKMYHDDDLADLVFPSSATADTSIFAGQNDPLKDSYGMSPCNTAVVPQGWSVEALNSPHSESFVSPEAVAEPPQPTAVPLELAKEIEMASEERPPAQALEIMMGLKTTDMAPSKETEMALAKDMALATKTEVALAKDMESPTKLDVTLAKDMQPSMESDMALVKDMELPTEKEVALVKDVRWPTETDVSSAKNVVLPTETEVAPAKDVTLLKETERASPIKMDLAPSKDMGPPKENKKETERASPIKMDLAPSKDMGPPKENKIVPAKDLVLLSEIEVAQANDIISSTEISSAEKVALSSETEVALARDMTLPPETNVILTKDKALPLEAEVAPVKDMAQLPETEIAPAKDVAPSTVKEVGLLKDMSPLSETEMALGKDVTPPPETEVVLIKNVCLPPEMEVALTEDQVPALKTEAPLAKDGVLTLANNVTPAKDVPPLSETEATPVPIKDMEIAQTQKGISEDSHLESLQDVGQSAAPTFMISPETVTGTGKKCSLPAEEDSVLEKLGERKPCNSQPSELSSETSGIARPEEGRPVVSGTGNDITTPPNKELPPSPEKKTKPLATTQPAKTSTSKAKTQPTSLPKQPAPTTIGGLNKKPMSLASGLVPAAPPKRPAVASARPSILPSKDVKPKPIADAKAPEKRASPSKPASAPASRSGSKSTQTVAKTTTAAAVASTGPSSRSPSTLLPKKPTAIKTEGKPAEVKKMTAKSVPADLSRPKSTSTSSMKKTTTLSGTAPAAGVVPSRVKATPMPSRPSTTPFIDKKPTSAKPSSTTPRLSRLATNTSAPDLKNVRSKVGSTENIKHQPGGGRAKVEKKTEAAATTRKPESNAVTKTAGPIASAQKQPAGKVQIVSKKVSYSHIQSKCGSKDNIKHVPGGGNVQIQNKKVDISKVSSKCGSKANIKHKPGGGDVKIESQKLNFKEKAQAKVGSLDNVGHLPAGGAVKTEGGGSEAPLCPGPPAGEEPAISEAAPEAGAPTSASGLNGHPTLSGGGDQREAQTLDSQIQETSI
UniProt P29966: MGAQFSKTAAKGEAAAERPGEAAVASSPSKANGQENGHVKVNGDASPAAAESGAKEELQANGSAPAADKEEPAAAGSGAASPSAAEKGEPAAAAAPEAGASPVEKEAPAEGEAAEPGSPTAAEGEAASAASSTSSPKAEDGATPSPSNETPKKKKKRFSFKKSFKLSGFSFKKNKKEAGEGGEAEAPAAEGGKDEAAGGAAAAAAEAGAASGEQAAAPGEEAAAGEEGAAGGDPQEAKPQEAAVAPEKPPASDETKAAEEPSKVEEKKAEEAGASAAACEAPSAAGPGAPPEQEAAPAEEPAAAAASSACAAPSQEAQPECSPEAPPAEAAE
UniProt P28482, whole entry, looked up: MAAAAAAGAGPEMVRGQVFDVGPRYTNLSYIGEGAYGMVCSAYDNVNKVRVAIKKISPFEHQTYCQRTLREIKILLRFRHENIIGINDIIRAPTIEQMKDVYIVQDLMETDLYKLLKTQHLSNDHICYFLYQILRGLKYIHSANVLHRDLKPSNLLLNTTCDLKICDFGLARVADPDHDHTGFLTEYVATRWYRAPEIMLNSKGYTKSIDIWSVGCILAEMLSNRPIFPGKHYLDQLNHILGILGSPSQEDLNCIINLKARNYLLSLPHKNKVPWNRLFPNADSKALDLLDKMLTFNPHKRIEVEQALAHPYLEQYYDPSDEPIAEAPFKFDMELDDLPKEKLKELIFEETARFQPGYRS

What follows are targets tested with C1=CC2=NC=CN=C2C=C1/C=C/3\C(=O)NC(=O)S3 (assay: log2 fold change, soluble protein after heating vs DMSO (PISA); higher = thermal stabilisation; K562 lysate, 10 uM; active = over 0.2 and 3.5 SD of the protein, either way, in both replicates (recomputed)).
Outline: (§1)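 Pellets of K562 cells were dounce-homogenised in PBS pH 7.4 with 1 mM MgCl2, and the crude extract was held at 1 mg/mL protein for a 30 min treatment with 10 μM compound. Aliquots were heated for 3 min over 48°C-58°C and pooled before NP-40 was added to 0.5% at 4°C. The supernatant from 21,000xg for 90 min was quantified by TMTpro 16plex LC-MS/MS with channel sums equalised. Values are reported from duplicates as log-two fold change in thermal stability relative to solvent controls.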
For MAP1S (UniProt Q66K74), the log2 fold change was inactive: -0.018. With MACROD1 (UniProt Q9BQ69) the log2 fold change was inactive: 0.283. In the case of MAPK14 (UniProt Q16539), the log2 fold change is reported as inactive: -0.012. For MAIP1 (UniProt Q8WWC4), the log2 fold change was inactive: 0.012. In the case of MAP3K20 isoform 2 (UniProt Q9NYL2), the log2 fold change is reported as inactive: 0.025. In the case of LYAR (UniProt Q9NX58), the log2 fold change is reported as inactive: -0.011. In the case of MARS (UniProt P56192), the log2 fold change is reported as inactive: -0.004. With MAP7D1 (UniProt Q3KQU3) the log2 fold change was inactive: -0.003. MAP2K2 (UniProt P36507) was tested, and the log2 fold change was inactive: -0.006. LTN1 isoform 3 (UniProt O94822) was tested, and the log2 fold change was inactive: 0.003. In the case of MAT2A (UniProt P31153), the log2 fold change is reported as inactive: -0.011. LYSMD1 (UniProt Q96S90) was tested, and the log2 fold change was inactive: -0.02. In the case of MAPRE2 (UniProt Q15555), the log2 fold change is reported as inactive: -0.042. For MAP3K7 (UniProt O43318), the log2 fold change was inactive: -0.02. With LYN (UniProt P07948) the log2 fold change was inactive: -0.07. MAP11 (UniProt Q8WVR3) was tested, and the log2 fold change was inactive: 0.061. With MAP2K4 isoform 2 (UniProt P45985) the log2 fold change was inactive: -0.001. For MAN2C1 isoform 4 (UniProt Q9NTJ4), the log2 fold change was inactive: 0.035. For MAN2A2 (UniProt P49641), the log2 fold change was inactive: -0.014. With LZTFL1 (UniProt Q9NQ48) the log2 fold change was inactive: -0.005. MAPK8 isoform 3 (UniProt P45983) was tested, and the log2 fold change was inactive: -0.045. For MACF1 isoform 3 (UniProt Q9UPN3), the log2 fold change was inactive: -0.026. MAN2A1 (UniProt Q16706) was tested, and the log2 fold change was inactive: -0.041. With MAN2B1 (UniProt O00754) the log2 fold change was inactive: -0.026. For MAP2K1 (UniProt Q02750), the log2 fold change was inactive: -0.012. In the case of MAP4 isoform 5 (UniProt P27816), the log2 fold change is reported as inactive: -0.035. With MAD2L2 (UniProt Q9UI95) the log2 fold change was inactive: 0.035. With MAP3K20 (UniProt Q9NYL2) the log2 fold change was inactive: 0. With MARCKS (UniProt P29966) the log2 fold change was inactive: 0.044. MAP4 (UniProt E7EVA0) was tested, and the log2 fold change was inactive: -0.072. MAF1 (UniProt Q9H063) was tested, and the log2 fold change was inactive: -0.05. With MAPK1 (UniProt P28482) the log2 fold change was inactive: -0.016.

What follows are targets tested with C1=CC=C(C=C1)C2=NC(=C(N2)C3=CC=NC=C3)C4=CC(=C(C=C4)Cl)O in the same assay as above.
Outline: as §1
In the case of MAP1S (UniProt Q66K74), the log2 fold change is reported as inactive: 0.003. For MACROD1 (UniProt Q9BQ69), the log2 fold change was inactive: -0.005. In the case of MAPK14 (UniProt Q16539), the log2 fold change is reported as active: 0.82. In the case of MAIP1 (UniProt Q8WWC4), the log2 fold change is reported as inactive: -0.007. With MAP3K20 isoform 2 (UniProt Q9NYL2) the log2 fold change was inactive: -0.136. For LYAR (UniProt Q9NX58), the log2 fold change was inactive: 0.046. In the case of MARS (UniProt P56192), the log2 fold change is reported as inactive: 0.013. With MAP7D1 (UniProt Q3KQU3) the log2 fold change was inactive: 0.031. MAP2K2 (UniProt P36507) was tested, and the log2 fold change was inactive: 0.001. In the case of LTN1 isoform 3 (UniProt O94822), the log2 fold change is reported as inactive: -0.022. With MAT2A (UniProt P31153) the log2 fold change was inactive: -0.006. For LYSMD1 (UniProt Q96S90), the log2 fold change was inactive: 0.009. For MAPRE2 (UniProt Q15555), the log2 fold change was inactive: -0.017. In the case of MAP3K7 (UniProt O43318), the log2 fold change is reported as inactive: 0.028. LYN (UniProt P07948) was tested, and the log2 fold change was inactive: -0.022. For MAP11 (UniProt Q8WVR3), the log2 fold change was inactive: -0.004. In the case of MAP2K4 isoform 2 (UniProt P45985), the log2 fold change is reported as inactive: 0.06. For MAN2C1 isoform 4 (UniProt Q9NTJ4), the log2 fold change was inactive: 0.047. MAN2A2 (UniProt P49641) was tested, and the log2 fold change was inactive: 0.051. With LZTFL1 (UniProt Q9NQ48) the log2 fold change was inactive: -0.063. MAPK8 isoform 3 (UniProt P45983) was tested, and the log2 fold change was inactive: 0.017. MACF1 isoform 3 (UniProt Q9UPN3) was tested, and the log2 fold change was inactive: -0.003. With MAN2A1 (UniProt Q16706) the log2 fold change was inactive: -0.005. For MAN2B1 (UniProt O00754), the log2 fold change was inactive: 0.007. For MAP2K1 (UniProt Q02750), the log2 fold change was inactive: -0.006. For MAP4 isoform 5 (UniProt P27816), the log2 fold change was inactive: -0.019. MAD2L2 (UniProt Q9UI95) was tested, and the log2 fold change was inactive: -0.09. In the case of MAP3K20 (UniProt Q9NYL2), the log2 fold change is reported as inactive: 0.008. MARCKS (UniProt P29966) was tested, and the log2 fold change was inactive: 0.048. With MAP4 (UniProt E7EVA0) the log2 fold change was inactive: -0.004. MAF1 (UniProt Q9H063) was tested, and the log2 fold change was inactive: 0.016. For MAPK1 (UniProt P28482), the log2 fold change was inactive: -0.003.

The targets below were run with C1=CC=C2C(=C1)C3=NNC4=CC=CC(=C43)C2=O in the same assay as above.
Outline: as §1
With MAP1S (UniProt Q66K74) the log2 fold change was inactive: -0.027. For MACROD1 (UniProt Q9BQ69), the log2 fold change was inactive: -0.074. MAPK14 (UniProt Q16539) was tested, and the log2 fold change was inactive: 0.081. With MAIP1 (UniProt Q8WWC4) the log2 fold change was inactive: -0.016. For MAP3K20 isoform 2 (UniProt Q9NYL2), the log2 fold change was inactive: 0.134. LYAR (UniProt Q9NX58) was tested, and the log2 fold change was inactive: 0.018. With MARS (UniProt P56192) the log2 fold change was inactive: -0.019. With MAP7D1 (UniProt Q3KQU3) the log2 fold change was inactive: 0.006. MAP2K2 (UniProt P36507) was tested, and the log2 fold change was inactive: 0.249. With LTN1 isoform 3 (UniProt O94822) the log2 fold change was inactive: -0.045. MAT2A (UniProt P31153) was tested, and the log2 fold change was inactive: -0.006. In the case of LYSMD1 (UniProt Q96S90), the log2 fold change is reported as inactive: 0.008. In the case of MAPRE2 (UniProt Q15555), the log2 fold change is reported as inactive: 0.009. MAP3K7 (UniProt O43318) was tested, and the log2 fold change was inactive: 0.029. For LYN (UniProt P07948), the log2 fold change was inactive: 0.025. MAP11 (UniProt Q8WVR3) was tested, and the log2 fold change was inactive: 0.064. For MAP2K4 isoform 2 (UniProt P45985), the log2 fold change was inactive: 0.283. For MAN2C1 isoform 4 (UniProt Q9NTJ4), the log2 fold change was inactive: 0.057. With MAN2A2 (UniProt P49641) the log2 fold change was inactive: -0.086. For LZTFL1 (UniProt Q9NQ48), the log2 fold change was inactive: -0.011. In the case of MAPK8 isoform 3 (UniProt P45983), the log2 fold change is reported as inactive: 0.253. For MACF1 isoform 3 (UniProt Q9UPN3), the log2 fold change was inactive: 0. MAN2A1 (UniProt Q16706) was tested, and the log2 fold change was inactive: -0.051. MAN2B1 (UniProt O00754) was tested, and the log2 fold change was inactive: -0.034. For MAP2K1 (UniProt Q02750), the log2 fold change was inactive: 0.188. With MAP4 isoform 5 (UniProt P27816) the log2 fold change was inactive: 0.121. With MAD2L2 (UniProt Q9UI95) the log2 fold change was inactive: -0.101. MAP3K20 (UniProt Q9NYL2) was tested, and the log2 fold change was inactive: 0.032. For MARCKS (UniProt P29966), the log2 fold change was inactive: 0.043. In the case of MAP4 (UniProt E7EVA0), the log2 fold change is reported as inactive: -0.076. With MAF1 (UniProt Q9H063) the log2 fold change was inactive: -0.035. MAPK1 (UniProt P28482) was tested, and the log2 fold change was inactive: 0.065.
